Measured values reported in the supplement of paper PMC8728848.
The other results are listed elsewhere or left out.

Legend:
Test in all cases: glycan array binding signal (z-score within array); higher = stronger binding
Conditions in all cases: glycan notation: IUPAC condensed, linker removed
Gal(a1-3)Gal(b1-3)GlcNAc = molecular target: Gal(a1-3)Gal(b1-3)GlcNAc
Outline: (§1)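 The binding signal is a Z-score computed within each array and averaged over linkers. Arrays of the same protein sequence at different concentrations or buffers were also averaged together. Data originate from 3228 arrays in the Consortium for Functional Glycomics database, kept only where the protein sequence was available.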

[1] = molecular target: Gal(a1-3)Gal(b1-3)GlcNAc(b1-2)Man
Outline: as §1

[2] = molecular target: Gal(a1-3)Gal(b1-3)GlcNAc(b1-2)Man(a1-3)[Gal(a1-3)Gal(b1-3)GlcNAc(b1-2)Man(a1-6)]Man(b1-4)GlcNAc(b1-4)GlcNAc
Outline: as §1

[3] = molecular target: Gal(a1-3)Gal(b1-3)GlcNAc(b1-3)GalNAc
Outline: as §1

[4] = molecular target: Gal(a1-3)Gal(b1-3)GlcNAc(b1-6)GalNAc
Outline: as §1

[5] = molecular target: Gal(a1-3)Gal(b1-3)[Fuc(a1-4)]GlcNAc(b1-2)Man(a1-3)[Gal(a1-3)Gal(b1-3)[Fuc(a1-4)]GlcNAc(b1-2)Man(a1-6)]Man(b1-4)GlcNAc(b1-4)GlcNAc
Outline: as §1

Gal(a1-3)Gal(b1-4)Glc = molecular target: Gal(a1-3)Gal(b1-4)Glc
Outline: as §1

Gal(a1-3)Gal(b1-4)GlcNAc = molecular target: Gal(a1-3)Gal(b1-4)GlcNAc
Outline: as §1

[6] = molecular target: Gal(a1-3)Gal(b1-4)GlcNAc(b1-2)Man
Outline: as §1

[7] = molecular target: Gal(a1-3)Gal(b1-4)GlcNAc(b1-2)Man(a1-3)[Gal(a1-3)Gal(b1-4)GlcNAc(b1-2)Man(a1-6)]Man(b1-4)GlcNAc(b1-4)GlcNAc
Outline: as §1

[8] = molecular target: Gal(a1-3)Gal(b1-4)GlcNAc(b1-3)GalNAc
Outline: as §1

[9] = molecular target: Gal(a1-3)Gal(b1-4)GlcNAc(b1-6)GalNAc
Outline: as §1

[10] = molecular target: Gal(a1-3)Gal(b1-4)[Fuc(a1-3)]GlcNAc
Outline: as §1

[11] = molecular target: Gal(a1-3)Gal(b1-4)[Fuc(a1-3)]GlcNAc(b1-2)Man(a1-3)[Gal(a1-3)Gal(b1-4)[Fuc(a1-3)]GlcNAc(b1-2)Man(a1-6)]Man(b1-4)GlcNAc(b1-4)GlcNAc
Outline: as §1

Gal(a1-3)GalNAc = molecular target: Gal(a1-3)GalNAc
Outline: as §1

[12] = molecular target: Gal(a1-3)[Gal(a1-4)]Gal(b1-4)GlcNAc
Outline: as §1

[13] = molecular target: Gal(a1-4)Gal(b1-3)GlcNAc(b1-2)Man(a1-3)[Gal(a1-4)Gal(b1-3)GlcNAc(b1-2)Man(a1-6)]Man(b1-4)GlcNAc(b1-4)GlcNAc
Outline: as §1

Gal(a1-4)Gal(b1-4)Glc = molecular target: Gal(a1-4)Gal(b1-4)Glc
Outline: as §1

Gal(a1-4)Gal(b1-4)GlcNAc = molecular target: Gal(a1-4)Gal(b1-4)GlcNAc
Outline: as §1

[14] = molecular target: Gal(a1-4)Gal(b1-4)GlcNAc(b1-2)Man(a1-3)[Gal(a1-4)Gal(b1-4)GlcNAc(b1-2)Man(a1-6)]Man(b1-4)GlcNAc(b1-4)GlcNAc
Outline: as §1

[15] = molecular target: Gal(a1-4)Gal(b1-4)GlcNAc(b1-3)Gal(b1-4)Glc
Outline: as §1

Gal(a1-4)GlcNAc = molecular target: Gal(a1-4)GlcNAc
Outline: as §1

Gal(a1-6)Glc = molecular target: Gal(a1-6)Glc
Outline: as §1

Gal(b1-2)Gal = molecular target: Gal(b1-2)Gal
Outline: as §1

Gal(b1-3)Gal = molecular target: Gal(b1-3)Gal
Outline: as §1

Gal(b1-3)Gal(b1-4)GlcNAc = molecular target: Gal(b1-3)Gal(b1-4)GlcNAc
Outline: as §1

Gal(b1-3)GalNAc = molecular target: Gal(b1-3)GalNAc
Outline: as §1

[16] = molecular target: Gal(b1-3)GalNAc(a1-3)[Fuc(a1-2)]Gal(b1-4)Glc
Outline: as §1

[17] = molecular target: Gal(b1-3)GalNAc(a1-3)[Fuc(a1-2)]Gal(b1-4)GlcNAc
Outline: as §1

Gal(b1-3)GalNAc(b1-3)Gal = molecular target: Gal(b1-3)GalNAc(b1-3)Gal
Outline: as §1

[18] = molecular target: Gal(b1-3)GalNAc(b1-3)Gal(a1-4)Gal(b1-4)Glc
Outline: as §1

[19] = molecular target: Gal(b1-3)GalNAc(b1-4)Gal(b1-4)Glc
Outline: as §1

[20] = molecular target: Gal(b1-3)GalNAc(b1-4)[Neu5Ac(a2-3)]Gal(b1-4)Glc
Outline: as §1

Gal(b1-3)GlcNAc = molecular target: Gal(b1-3)GlcNAc
Outline: as §1

[21] = molecular target: Gal(b1-3)GlcNAc(a1-3)Gal(b1-4)GlcNAc
Outline: as §1

[22] = molecular target: Gal(b1-3)GlcNAc(a1-6)Gal(b1-4)GlcNAc
Outline: as §1

Gal(b1-3)GlcNAc(b1-2)Man = molecular target: Gal(b1-3)GlcNAc(b1-2)Man
Outline: as §1

[23] = molecular target: Gal(b1-3)GlcNAc(b1-2)Man(a1-3)[Gal(b1-3)GlcNAc(b1-2)Man(a1-6)]Man(b1-4)GlcNAc(b1-4)GlcNAc
Outline: as §1

B1: Loc1 (Escherichia coli) (protein)
chain: APCALTNVGEQRGTYILKPLSMKGNLTAEKIENTGNIIECTDLQETTNAIKVHFLTQNALKFKVGSRHYIINFPFEYDGKKIELPGKSSYNLEEMLSAINFTIPYSIASVSDSSNTADIFPGTPFPLLFEIEVSSCTGNNTNCNSVRFNYNLNTILQVNLMTHHHHHH
glycan array binding signal (z-score) (Gal(a1-3)Gal(b1-3)GlcNAc): -0.498
glycan array binding signal (z-score) [1]: 0.062
glycan array binding signal (z-score) [2]: -0.241
glycan array binding signal (z-score) [3]: -0.285
glycan array binding signal (z-score) [4]: -0.732
glycan array binding signal (z-score) [5]: -0.81
glycan array binding signal (z-score) (Gal(a1-3)Gal(b1-4)Glc): 0.285
glycan array binding signal (z-score) (Gal(a1-3)Gal(b1-4)GlcNAc): -0.512
glycan array binding signal (z-score) [6]: 0.198
glycan array binding signal (z-score) [7]: -0.634
glycan array binding signal (z-score) [8]: -0.17
glycan array binding signal (z-score) [9]: -0.5
glycan array binding signal (z-score) [10]: 0.741
glycan array binding signal (z-score) [11]: 1.32
glycan array binding signal (z-score) (Gal(a1-3)GalNAc): 7.25
glycan array binding signal (z-score) [12]: -0.079
glycan array binding signal (z-score) [13]: -0.697
glycan array binding signal (z-score) (Gal(a1-4)Gal(b1-4)Glc): -0.885
glycan array binding signal (z-score) (Gal(a1-4)Gal(b1-4)GlcNAc): 0.762
glycan array binding signal (z-score) [14]: -1.05
glycan array binding signal (z-score) [15]: 0.176
glycan array binding signal (z-score) (Gal(a1-4)GlcNAc): 0.019
glycan array binding signal (z-score) (Gal(a1-6)Glc): -0.245
glycan array binding signal (z-score) (Gal(b1-2)Gal): 1.18
glycan array binding signal (z-score) (Gal(b1-3)Gal): -0.236
glycan array binding signal (z-score) (Gal(b1-3)Gal(b1-4)GlcNAc): -0.198
glycan array binding signal (z-score) (Gal(b1-3)GalNAc): 0.154
glycan array binding signal (z-score) [16]: 0.497
glycan array binding signal (z-score) [17]: 0.341
glycan array binding signal (z-score) (Gal(b1-3)GalNAc(b1-3)Gal): -0.837
glycan array binding signal (z-score) [18]: 0.414
glycan array binding signal (z-score) [19]: -0.233
glycan array binding signal (z-score) [20]: -0.406
glycan array binding signal (z-score) (Gal(b1-3)GlcNAc): -0.652
glycan array binding signal (z-score) [21]: -0.463
glycan array binding signal (z-score) [22]: -0.709
glycan array binding signal (z-score) (Gal(b1-3)GlcNAc(b1-2)Man): -0.067
glycan array binding signal (z-score) [23]: -0.094
